# In all, about 360,000 compounds went through this assay and about 7,500 (2.1%) were called active. This list was built around the results that the source calls inconclusive (neither active nor inactive); the mix of calls is not that of the screen. Calls come from the whole dose curve; as a rule, active = well fitted inhibition curve with a large enough effect; inconclusive = small, poorly fitted or top-dose-only effect, or effect the other way; inactive = flat fitted curve, though single readings scatter. Potencies of inconclusive entries are doubtful fits and often do not repeat.
# Test: Nrf2 qHTS screen for inhibitors; note: nearly all actives have a fitted effect of over 60% in size
# Conditions: A549 ARE-Fluc reporter, luciferase luminescence, 18-24 h; activity change, negative = inhibition: at 46 µM (top of the series)
# How it was run: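 A549 ARE_Fluc cells (5000/well, 5% FBS OPTI-MEM) pre-incubated 2 h, then treated with compounds 18-24 h at 37C/5% CO2 in concentration-response. CellTiter-Fluor viability read first; BugLite luciferase luminescence after 15 min at room temperature gives Nrf2 activity.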
# % is set by controls: 0 for no effect and ±100 for the full control effect; potency is the fitted concentration of half-maximal effect.
Compound,Potency,"activity change, negative = inhibition"
O=C(Nc1cccc2cccnc12)c1cccc([N+](=O)[O-])c1,"inconclusive: 16.4 µM [activator, single point]",
Cc1ccc(NC(=O)c2nc[nH]c2C(=O)N[C@H](C)c2ccccc2)cc1,"inconclusive: 29.1 µM [falling, single point]",
Cc1cccc(-n2ncc3c(NC(C)C)ncnc32)c1,"inconclusive: 0.58 µM [activator, full curve]",
CC(C)C(=O)Nc1cccc(-c2cnc3ccccc3n2)c1,,inactive: 18.5%
Nc1c2ccccc2nc2ccccc12,active: 20.6 µM,
COc1ccc(CNC(=S)Nc2ccccc2)cc1Cl,"inconclusive: 29.1 µM [falling, single point]",
CC(=O)N1c2ccc(S(=O)(=O)N3CCC(C(=O)Nc4cccc(Cl)c4)CC3)cc2CC1C (centres undefined),active: 2.06 µM,
COc1ccc(NC(=O)c2ccc(NC(=O)CN3CCC(C(N)=O)CC3)cc2)cc1,"inconclusive: 14.6 µM [activator, partial curve, poor fit]",
O=C(CSc1nnc(-c2ccc(C(F)(F)F)cn2)o1)Nc1ccccc1Cl,"inconclusive: 25.9 µM [activator, single point]",
Cc1cc(C)c2c(n1)sc1c(=O)n(-c3ccccc3C(F)(F)F)nnc12,,inactive: 0.201%
CCOC(=O)N1CCC(NC(=O)c2cc(-c3ccc(F)cc3)[nH]c2C)CC1,active: 23.1 µM,
Cc1cc(=O)oc2c(C(=O)/C=C\c3cccs3)c(O)ccc12,"inconclusive: 20.6 µM [falling, single point]",
CCc1cccc(CC)c1NC(=O)C1SC(=Nc2ccccc2C)C(c2nc3ccccc3s2)=C1N (centres undefined),active: 14.6 µM,
O=C(O)c1ccc2c(c1)C(=O)N([C@H](Cc1ccccc1)C(=O)O)C2=O,,inactive: 16.4%
COc1ccc(CSCC(=O)Nc2ccc(S(=O)(=O)N3CCCCCC3)cc2)cc1,"inconclusive: 32.6 µM [falling, partial curve, poor fit]",
Cc1cc(C)c(NC(=S)N(CCc2ccncc2)C(C)C)c(C)c1,"inconclusive: 14.6 µM [activator, partial curve, poor fit]",
Cc1ccccc1CSc1ccc(-c2cccs2)nn1,"inconclusive: 14.6 µM [activator, partial curve]",
Cc1ccc(/C=N/NC(=O)Cc2cccn2C)cc1,"inconclusive: 18.4 µM [activator, partial curve]",
O=c1cc(-c2ccccc2Cl)c2c([nH]1)CCC2,"inconclusive: 5.17 µM [falling, partial curve, poor fit]",
Cc1nc(N2CCN(C(=O)c3ccco3)CC2)c2c3c(sc2n1)CCCC3,"inconclusive: 16.4 µM [falling, single point]",
COc1ccccc1NC(=O)Nc1nn(C)c2cccc(N(C)C)c12,"inconclusive: 14.6 µM [falling, partial curve, poor fit]",
Cc1ccc(S(=O)(=O)NC(C)(C)CN2CCCCC2)cc1,,inactive: -4.18%
CCC(Cc1ccccc1)NC(=O)c1cc(S(=O)(=O)N2CCCCC2)c[nH]1 (centres undefined),,inactive: 0.369%

Compound,Potency,"activity change, negative = inhibition"
Cc1ccc(Cc2cn3cc(-c4ccc(F)cc4)nc3s2)cc1,"inconclusive: 0.517 µM [activator, full curve, poor fit]",
Cc1ccc(-n2c(C(C)C)nc3oc4ccccc4c(=O)c3c2=O)cc1,"inconclusive: 18.4 µM [activator, partial curve]",
Cc1cccc(NC(=O)c2c(O)c3ccccc3[nH]c2=O)c1,"inconclusive: 5.17 µM [activator, full curve]",
Cc1ccc(C(=O)Nc2ccc(Br)cc2)cc1S(=O)(=O)Nc1ccccn1,,inactive: -10.9%
O=C(Nc1ccc(Nc2ccccc2)cc1)c1ccc(Cl)cc1Cl,"inconclusive: 13 µM [falling, partial curve, poor fit]",
N#Cc1c(N)sc2c1CCCCCC2,,inactive: 8.96%
Cc1cc(C)cc(C(=O)N2CC(=O)Nc3ccccc32)c1,"inconclusive: 5.17 µM [activator, full curve]",
FC(F)Oc1ccc(NC(=S)NCCc2ccccn2)cc1,"inconclusive: 20.6 µM [activator, single point]",
O=C(c1cc2ccccc2oc1=O)N(c1ccccc1)C1C=CS(=O)(=O)C1 (centres undefined),,inactive: 2.4%
Cc1c(C(=O)OCC(=O)c2c(N)n(CC(C)C)c(=O)n(C)c2=O)oc2ccccc12,"inconclusive: 16.4 µM [falling, partial curve, poor fit]",
CCCOC1CCCN(C(=O)c2ccc3oc(C(C)C)nc3c2)C1 (centres undefined),"inconclusive: 13 µM [activator, partial curve]",
CN(CCOc1ccc(Cl)cc1)C(=O)Cc1ccc(S(=O)(=O)N2CCOCC2)s1,"inconclusive: 23.1 µM [falling, partial curve]",
COc1cccc(-c2cn3ncsc3n2)c1,"inconclusive: 8.2 µM [activator, partial curve]",
c1cnc(N2CCN(c3ncc4c(n3)CCNC4)CC2)nc1,"inconclusive: 29.1 µM [activator, single point]",
CS(=O)(=O)c1ccc(Cl)c(NC(=O)CCl)c1,active: 20.6 µM,
CC(C)N(CC(=O)Nc1ccc(Cl)cc1C(F)(F)F)C(=O)CCl,active: 13 µM,
COc1ccc(OC)c(-n2nnc(-c3nc(-c4cc(OC)c(OC)c(OC)c4)no3)c2C)c1,"inconclusive: 4.11 µM [falling, full curve, poor fit]",
Cc1cc(-c2nnc(CCC(=O)NCc3cc(F)cc(C(F)(F)F)c3)o2)no1,,inactive: -22.3%
CCSc1nnc(Nc2ccc(C)cc2)s1,"inconclusive: 6.51 µM [activator, single point]",
CCN(CC)S(=O)(=O)c1ccc(Cl)c(NC(=O)COC(=O)c2cccn2C)c1,"inconclusive: 29.1 µM [falling, single point]",
COc1ccc2cc(C(=O)C3CCCN(Cc4cccc(C)n4)C3)ccc2c1 (centres undefined),"inconclusive: 14.6 µM [falling, partial curve, poor fit]",
COc1cc(NS(=O)(=O)c2ccc(NC(=S)NC(=O)/C=C/c3ccc(F)cc3)cc2)ncn1,,inactive: -2.96%
COc1ccc(/C=N/Nc2ncnc3c2[nH]c2ccc(C)cc23)c(OC)c1OC,"inconclusive: 5.17 µM [falling, full curve, poor fit]",

# Structures listed so far with a furan ring, fused or not, in the order listed:
Compound,Potency,"activity change, negative = inhibition"
Cc1nc(N2CCN(C(=O)c3ccco3)CC2)c2c3c(sc2n1)CCCC3,"inconclusive: 16.4 µM [falling, single point]",
Cc1c(C(=O)OCC(=O)c2c(N)n(CC(C)C)c(=O)n(C)c2=O)oc2ccccc12,"inconclusive: 16.4 µM [falling, partial curve, poor fit]",

# More compounds:

Compound,Potency,"activity change, negative = inhibition"
Cc1ccc(CNC(=O)c2ccc(Cn3c(=O)c4ccccc4n(CC(=O)Nc4c(C)cc(C)cc4C)c3=O)cc2)cc1,"inconclusive: 14.6 µM [falling, partial curve]",
O=C(C1CCCCC1)N1CCc2[nH]c3ccc(F)cc3c2C1,,inactive: -8.2%
Cc1ccc(C)c(NC(=O)C2C(c3ccccc3)C2(Cl)Cl)c1 (centres undefined),"inconclusive: 14.6 µM [falling, partial curve, poor fit]",
C=CCN(C(=O)Cn1nc(C)n2c(cc3cc(C)ccc32)c1=O)c1ccccc1,"inconclusive: 1.46 µM [falling, full curve, poor fit]",
O=C(CSc1nc(-c2ccco2)cc(C(F)(F)F)n1)N1CCN(Cc2ccccc2)CC1,"inconclusive: 20.6 µM [falling, single point]",
CCOc1ccc(CNC(=O)c2nn(-c3ccc(OC)cc3)c(=O)c3c2c2ccccc2n3C)cc1,"inconclusive: 7.31 µM [activator, partial curve, poor fit]",
CCOc1ccc(Br)cc1S(=O)(=O)Nc1cccc(S(=O)(=O)N(C)c2ccccc2)c1,"inconclusive: 20.6 µM [falling, single point]",
Cc1ccc(Cl)cc1N1CCN(C(=O)CCC(=O)O)CC1,,inactive: 1.97%
O=C(NC1CCCCCC1)C(=S)NC1CCCCC1,"inconclusive: 2.91 µM [activator, full curve]",
CC1CCc2c(sc(NC(=O)CSc3ncn[nH]3)c2C#N)C1 (centres undefined),active: 7.31 µM,
CC(C)=CC(O)C/C(C)=C/COc1ccc2ccc(=O)oc2c1 (centres undefined),active: 10.3 µM,
COC(=O)c1c(NC(=O)c2ccco2)sc2c1C(C(=O)OC)CC2 (centres undefined),,inactive: -6.43%
CC(C)CC(=O)N1CCN(Cc2cccc([N+](=O)[O-])c2)CC1,"inconclusive: 18.4 µM [falling, partial curve]",
CN(c1ccc(C(=O)Nc2ccc(F)cc2F)cc1)S(=O)(=O)c1ccccc1,"inconclusive: 23.1 µM [falling, partial curve]",
NC(=O)CSc1ncc2c(n1)-c1ccccc1N(Cc1ccc(F)cc1)S2(=O)=O,"inconclusive: 29.1 µM [activator, single point]",
O=C(/C=C/c1ccc(OC2CSC2)cc1)c1ccccc1,"inconclusive: 5.8 µM [activator, partial curve]",
CCOc1ccc2nc(NC(=O)Nc3ccccc3)sc2c1,"inconclusive: 1.03 µM [activator, full curve, poor fit]",
O=C(NCc1ccccc1)c1cccn1-c1nnc(N2CCCC2)s1,"inconclusive: 18.4 µM [activator, single point]",
CCCCN(C)CCC(=O)Nc1ccc(C)cc1,"inconclusive: 32.6 µM [activator, partial curve, poor fit]",
COc1ccc(OCCn2c(NC(=O)c3ccco3)nc3ccccc32)cc1,"inconclusive: 29.1 µM [falling, single point]",
COC(=O)[C@@H](C)NC(=O)c1ccc2oc(CCc3ccccc3)nc2c1,"inconclusive: 14.6 µM [activator, single point]",
COc1ccccc1/C=C/C(=O)NCCc1ccccn1,"inconclusive: 10.3 µM [activator, partial curve]",
CN1C(=O)c2ccccc2Sc2ccc(NC(=O)N3CCN(c4ccccc4)CC3)cc21,,inactive: -14.6%
